Data published in PubChem BioAssay AID1919015 (Molecular Pharmacology Branch, DTP, NCI, 2023).
Several values for one entry are separate records, joined by “and”; a condition that tells them apart may be missing. Rule for the calls: active = viability on the fitted dose curve at most 10% of control; inactive = the rest. Identical values can stand only once. Further values from the same series stand in other lists.

System: OVCAR-5 complex spheroids with HUVEC/MSC, viability, % test/control
Test: Anticancer human tumor OVCAR-5 cell line growth inhibition [AhR];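 note: spheroids exposed to compounds for 7 days; 100% = DMSO vehicle control wells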
Settings: stronger effect = lower value
Excerpt: Multicellular complex tumor spheroid response to aryl hydrocarbon receptor antagonists in combination with a variety of drugs and investigational agents in selected tumor cell lines
The current study was undertaken to assess response to aryl hydrocarbon receptor antagonists in combination with standard-of-care drugs and investigational agents in solid tumor complex spheroid models. Complex spheroids include a stromal component modeled by human endothelial cells (HUVEC) and fibroblasts modeled by human mesenchymal stem cells (MSCs). The concentration ranges selected for each drug and investigational agent were based upon clinically achievable concentrations if the clinical Cmax of the agent was known.
Compounds. The drugs and investigational agents: BAY 2416964 (NSC825713), GNF351 (NSC835774), CH-223191 (NSC835775), CPI-455 (NSC825282), aza-TdCyd (NSC777586), decitabine (NSC127716), belinostat (NSC758774), entinostat (NSC756642), pevonedistat (NSC761192), tazemetostat (NSC777109), talazoparib (NSC765396), olaparib (NSC753686), selinexor (NSC780203), nedisertib (M3814, NSC802822), bortezomib (NSC756655), venetoclax (NSC766270), doxorubicin (NSC123127), elimusertib (BAY189344, NSC800525), ceralasertib (AZD6738, NSC777638), TAK-243 (NSC785004), alisertib (NSC759677), etoposide (NSC141540), topotecan (NSC609699), eribulin (NSC707389), gemcitabine (NSC613327), carboplatin (NSC241240), cisplatin (NSC119875), and SN-38 (NSC673596) were obtained from the National Cancer Institute (NCI) Developmental Therapeutics Program Chemical Repository (32). The FDA-approved anticancer drug set is available from the Developmental Therapeutics Program at https://dtp.cancer.gov/organization/dscb/obtaining/available plates.htm. […] The stock solutions were prepared in dimethyl sulfoxide (DMSO, Sigma-Aldrich, St. Louis, MO, cat. D2650), except for the platinum compounds which were prepared in saline (Quality Biological, Gaithersburg, MD, cat. 114-055-101), at 800-fold the tested concentration and stored at -70 degrees C prior to their use. All drugs and investigational agents were tested over a range starting from a high concentration at or near the clinical Cmax and decreasing in half-log increments. If the clinical Cmax for an agent had not been determined, the highest concentration tested was 10 microM (Table 1).
Cell Culture. All cells were maintained in an incubator at 37 degrees C and 5% CO2 with 95% humidity. The PDC lines were cultured according to standard operating procedures established by the NCI PDMR (https://pdmr.cancer.gov). Briefly, all PDCs were thawed and cultured in Matrigel-coated flasks prepared with a working solution of 1X Ham's F-12 nutrient mix, without supplementation (Invitrogen, Waltham, MA, cat. 11765054), 100 U/mL penicillin-streptomycin (Invitrogen, cat. 15140122), and 2.5% Matrigel (Corning Inc., Corning, NY, cat. 354248) for the first three passages. All PDCs were cultured in complete DMEM/F-12 media containing advanced DMEM/F-12 (Invitrogen, cat. 12634028), 4.9% defined fetal bovine serum, heat inactivated (HyClone Laboratories Inc., Logan, UT, cat. SH30070.03HI), 389 ng/mL hydrocortisone (Sigma-Aldrich, cat. H4001), 9.7 ng/mL human EGF recombinant protein (Invitrogen, cat. PHG0313), 23.4 microg/mL adenine (Sigma-Aldrich, cat. A2786), 97.3 U/mL penicillin-streptomycin (Invitrogen, cat. 15140122), 1.9 mM L-glutamine (Invitrogen, cat. 25030081), and 9.7 microM Y-27632 dihydrochloride (Tocris Bioscience, Bristol, United Kingdom, cat. 1254). The PDCs were cultured in complete DMEM/F12 media without 10 microM Y-27632 dihydrochloride for at least two passages prior to the screen. The established cell lines NCI-H1341 and […] were cultured in DMEM/F-12, HEPES (Invitrogen, cat. 11330032), 5% defined fetal bovine serum (HyClone Laboratories Inc., cat. SH30070.03), ITS premix universal culture supplement [insulin (5 microg/mL), transferrin (5 microg/mL), and selenious acid (5 ng/mL)] […]

Measured: viability, T/C

CC(CO)NC(=O)c1cc(-c2ccc(Cl)cc2)nn(-c2cnn(C)c2)c1=O (stereo not given)
inactive: compound 0.1 µM 104% | compound 0.316 µM 111% | compound 1 µM 116% | compound 3.16 µM 111% | compound 10 µM 100% [middle of 4 runs]

Cc1cncc(-c2nc(NCCc3c[nH]c4ccccc34)c3ncn(C(C)C)c3n2)c1
inactive: compound 0.1 µM 102% and 105% | compound 0.316 µM 106% and 102% and 99.6% | compound 1 µM 97.2% [middle of 5 runs] | compound 3.16 µM 85.6% [middle of 5 runs] | compound 10 µM 24.1% and 14.2%

Cc1ccccc1N=Nc1ccc(NC(=O)c2ccnn2C)c(C)c1
inactive: compound 0.1 µM 100% (2×) and 98.6% and 99.5% | compound 0.316 µM 107% (2×) and 103% | compound 1 µM 101% | compound 3.16 µM 104% and 107% | compound 10 µM 111%
